# Where a name gives a salt, the structure may show the parent alone. The campaign covered roughly 2,100 compounds. About 180 (8.6%) showed an effect of 50% or more. The list shows a part of the results.
# Test system: MOLM1 and UCSD/AML1 (averaged)
# Test: cell viability relative to DMSO control (POC); higher = less growth inhibition
# Conditions: 1 µM; 72 h
# Method: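 Primary viability screen in the 3q26 EVI1-high AML cell lines MOLM1 and UCSD/AML1 (1.5e3 cells/well, 384-well), compounds at 1 uM for 72 h. ATP CellTiter-Glo read-out given as percent of viable cells over DMSO control (POC), averaged over duplicates. DMSO was the negative control and 5 uM etoposide the positive control. This mapping covers the MicroSource Spectrum and Selleck anticancer libraries (drug names).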
row,SMILES,cell viability
1,CCOC(=O)[N-]c1c[n+](N2CCOCC2)no1,90.5%
2,CC[N+](CC)(CC)CCOc1cccc(OCC[N+](CC)(CC)CC)c1OCC[N+](CC)(CC)CC,101%
3,CC(C)(C)NCC(O)c1cc(O)cc(O)c1 (configuration not stated),99.1%
4,COc1ccc2c(c1)O[C@@H]1COc3cc(OC)c(OC)cc3[C@@H]1C2=O,102%
5,CCN(CCCOc1ccc2c(Nc3cc(CC(=O)Nc4cccc(F)c4)[nH]n3)ncnc2c1)CCOP(=O)(O)O [Barasertib (AZD1152-HQPA)],74.2%
6,CN[C@@H]1[C@H](O[C@H]2[C@H](O[C@H]3[C@H](O)[C@@H](O)[C@H](NC(=N)N)[C@@H](O)[C@@H]3NC(=N)N)O[C@@H](C)[C@]2(O)CO)O[C@@H](CO)[C@H](O)[C@H]1O,109%
7,NCc1ccc(S(N)(=O)=O)cc1,98.8%
8,CCc1oc2ccccc2c1C(=O)c1cc(Br)c(O)c(Br)c1,94%
9,O=C(O)c1cccnc1C(=O)O,94.1%
10,CCOc1ccc(NC(C)=O)cc1,92.7%
11,CN1CCC[C@@H]1CCO[C@](C)(c1ccccc1)c1ccc(Cl)cc1,97.9%
12,CN1CCN(c2nc(C3=C(c4c[nH]c5ccccc45)C(=O)NC3=O)c3ccccc3n2)CC1 [Sotrastaurin (AEB071)],60.2%
13,C/C=C1\[C@H]2C=C(C)C[C@]1(N)c1ccc(=O)[nH]c1C2,78.7%
14,C[N+](C)(C)CCO.[Cl-],94.5%
15,CN1CCC(OC(c2ccccc2)c2ccccc2)CC1,108%
16,O=C(Oc1cccc2cccnc12)c1ccccc1,107%
17,COC(=O)c1ccc2c(C(=Nc3ccc(N(C)C(=O)CN4CCN(C)CC4)cc3)c3ccccc3)c(O)[nH]c2c1 [BIBF1120 (Vargatef)],11.9%
18,Cn1cc(-c2ccc3nnc(Sc4ccc5ncccc5c4)n3n2)cn1,82.3%
19,Clc1ccc(Nc2nnc(Cc3ccncc3)c3ccccc23)cc1 [Vatalanib dihydrochloride (PTK787)],44.6%
20,Fc1ccc([C@@H]2CCNC[C@H]2COc2ccc3c(c2)OCO3)cc1,81%
21,CN(C/C=C/C#CC(C)(C)C)Cc1cccc2ccccc12,103%

# Rewritten with bars between the fields: entries from further up.
row | SMILES | cell viability
5 | CCN(CCCOc1ccc2c(Nc3cc(CC(=O)Nc4cccc(F)c4)[nH]n3)ncnc2c1)CCOP(=O)(O)O [Barasertib (AZD1152-HQPA)] | 74.2%
7 | NCc1ccc(S(N)(=O)=O)cc1 | 98.8%
9 | O=C(O)c1cccnc1C(=O)O | 94.1%

# Given bar-delimited: entries from further up.
row | SMILES | cell viability
4 | COc1ccc2c(c1)O[C@@H]1COc3cc(OC)c(OC)cc3[C@@H]1C2=O | 102%
5 | CCN(CCCOc1ccc2c(Nc3cc(CC(=O)Nc4cccc(F)c4)[nH]n3)ncnc2c1)CCOP(=O)(O)O [Barasertib (AZD1152-HQPA)] | 74.2%

# Continuation.

row,SMILES,cell viability
1,O=C(NC1CCCCC1)NC1CCCCC1,120%
2,C=C1CCC2C(CC2(C)C)C(=O)CCC1O (configuration not stated),104%
3,NC(CO)C(=O)NNCc1ccc(O)c(O)c1O (configuration not stated),101%
4,C[C@H]1COc2c(N3CCN(C)CC3)c(F)cc3c(=O)c(C(=O)O)cn1c23,85.9%
5,CN(C)CCCN1c2ccccc2CCc2ccccc21,102%
6,NCC[C@H](O)C(=O)N[C@@H]1C[C@H](N)[C@@H](O[C@H]2O[C@H](CN)[C@@H](O)[C@H](O)[C@H]2O)[C@H](O)[C@H]1O[C@H]1O[C@H](CO)[C@@H](O)[C@H](N)[C@H]1O,95.1%
7,COc1cc(/C=C/C(=O)CC(=O)/C=C/c2ccc(O)c(OC)c2)ccc1O,101%
8,Cc1cc2nc3c(=O)[nH]c(=O)nc-3n(CC(O)C(O)C(O)COP(=O)(O)O)c2cc1C (configuration not stated),83.8%
9,CC(C)=CCOc1cc2oc(=O)ccc2cc1O,98%
10,Cc1cc2c(F)c(Oc3ncnn4cc(OC[C@@H](C)O)c(C)c34)ccc2[nH]1,89.6%
11,CC(=O)OCC[N+](C)(C)C,102%
12,OCCN1C[C@H](O)[C@@H](O)[C@H](O)[C@H]1CO,97.2%
13,CC(=O)O[C@@H]1CC2C(C)(C)C(=O)CC[C@]2(C)C2CC[C@]3(C)C(=CC(=O)O[C@H]3c3ccoc3)[C@@]21C (some centres not stated),110%
14,CC(C)C(=O)Nc1ccc([N+](=O)[O-])c(C(F)(F)F)c1 [Flutamide (Eulexin)],83%
15,CC(C)C(=O)Nc1ccc([N+](=O)[O-])c(C(F)(F)F)c1,100%
16,Cn1cnc([N+](=O)[O-])c1Sc1ncnc2[nH]cnc12,96.6%
17,"Cn1cnc([N+](=O)[O-])c1Sc1ncnc2[nH]cnc12 [Azathioprine (Azasan, Imuran)]",98.3%
18,O=C(O)CCCC[C@@H]1SC[C@@H]2NC(=O)N[C@@H]21,96.8%
19,CC1COc2c(N3CCN(C)CC3)c(F)cc3c(=O)c(C(=O)O)cn1c23 (configuration not stated),103%
20,C[C@H](CCC(=O)O)[C@H]1CC[C@H]2[C@@H]3CC[C@@H]4C[C@H](O)CC[C@]4(C)[C@H]3CC[C@]12C,87.5%
21,CC(C)NCC(O)c1cc(O)cc(O)c1 (configuration not stated),95.8%

row,SMILES,cell viability
1,O=C(O)CN(CCN(CC(=O)O)CC(=O)O)CCN(CC(=O)O)CC(=O)O,88.8%
2,COc1ccc(-c2cc(=O)c3c(OC)c(OC)c(OC)cc3o2)cc1OC,105%
3,O=C(/C=C/C=C/c1ccc2c(c1)OCO2)N1CCCCC1,99.9%
4,CCC(=O)OCC(=O)[C@@]1(OC(=O)CC)[C@@H](C)C[C@H]2[C@@H]3CCC4=CC(=O)C=C[C@]4(C)[C@@]3(Cl)[C@@H](O)C[C@@]21C,69.6%
5,COc1ccc(-c2cc(=O)c3c(O)cc(OC)cc3o2)cc1,110%
6,CCN(CC)Cc1cc(Nc2ccnc3cc(Cl)ccc23)ccc1O,104%
7,CC(C)=CCC/C(C)=C/CC/C(C)=C/CC/C(C)=C/CO,95.1%
8,CC(=O)OCC1=C(C(=O)O)N2C(=O)[C@@H](NC(=O)Cc3cccs3)[C@H]2SC1,108%
9,CC(C)(C)NCC(O)c1ccc(O)c(CO)c1 (racemic),93.2%
10,C=CCn1c(=O)c2cnc(Nc3ccc(N4CCN(C)CC4)cc3)nc2n1-c1cccc(C(C)(C)O)n1,19.2%
11,CCN(CC)CCNC(=O)COc1ccc(OC)cc1,97.5%
12,C=CCCCCCCCCC(=O)O,102%
13,CC1(C)S[C@@H]2[C@H](NC(=O)Cc3ccccc3)C(=O)N2[C@H]1C(=O)O,106%
14,CCCCc1nc(Cl)c(CO)n1Cc1ccc(-c2ccccc2-c2nnn[nH]2)cc1,91.4%
15,COc1c(O)cc2oc3cc(O)c(CC=C(C)C)c(O)c3c(=O)c2c1CC=C(C)C [alpha-MANGOSTIN],95.2%
16,CC1(C)C[C@@H]2C(=O)CC[C@H]3O[C@]3(C)CC[C@H]21,104%
17,O=C1CCC(N2C(=O)c3ccccc3C2=O)C(=O)N1 (configuration not stated) [Thalidomide],104%
18,O=C1CCC(N2C(=O)c3ccccc3C2=O)C(=O)N1 (configuration not stated),104%
19,C[n+]1ccccc1C=NO,99.8%
20,CC[n+]1c(-c2ccccc2)c2cc(N)ccc2c2ccc(N)cc21,93%

# From the supplement of paper PMC11150407
